From ChEMBL document CHEMBL4325856, “Synthesis of cinnamic amide derivatives and their anti-melanogenic effect in α-MSH-stimulated B16F10 melanoma cells” (Eur J Med Chem, 2019) come the findings set out here.

The structures appear in SMILES notation. Active and inactive are the calls of the source. No cut-off for these calls is given here.

This test deals with T1, Tyrosinase (Agaricus bisporus) (UniProt O42713).
T1 sequence (whole entry): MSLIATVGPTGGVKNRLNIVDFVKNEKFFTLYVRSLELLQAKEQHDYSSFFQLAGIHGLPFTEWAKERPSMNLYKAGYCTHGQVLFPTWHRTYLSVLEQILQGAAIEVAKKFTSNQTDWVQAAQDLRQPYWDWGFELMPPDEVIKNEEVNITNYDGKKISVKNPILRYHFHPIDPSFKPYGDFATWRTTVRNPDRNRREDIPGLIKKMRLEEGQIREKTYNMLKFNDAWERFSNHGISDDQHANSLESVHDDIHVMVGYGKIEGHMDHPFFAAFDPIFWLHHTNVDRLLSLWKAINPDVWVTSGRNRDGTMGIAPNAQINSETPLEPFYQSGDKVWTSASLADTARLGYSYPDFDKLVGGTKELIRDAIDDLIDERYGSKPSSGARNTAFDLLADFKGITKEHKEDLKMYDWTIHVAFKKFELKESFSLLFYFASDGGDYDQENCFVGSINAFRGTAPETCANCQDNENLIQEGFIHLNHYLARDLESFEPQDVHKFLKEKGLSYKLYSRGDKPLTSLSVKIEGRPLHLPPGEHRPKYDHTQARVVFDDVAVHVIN
The settings on record: at 25 µM.

Regarding `O=C(/C=C/c1ccc(O)cc1)Nc1ccccc1`, the inhibition entry was “inactive”.
